In publication PMC11044963, “Probing the CRL4^DCAF12 interactions with MAGEA3 and CCT5 di-Glu C-terminal degrons” (PNAS Nexus, 2024):
No constants are given. Whether binding was seen depends on the method and setting. Some binding calls cover weakened binding; strength is not graded here. For some assays here: Sequences can lack the tags named with a protein.

Columns and labels:
[1] = target: T1, FITC-labeled control peptide derived from Histone H3 K9A mutant variant (H3K9A); test: fluorescence polarisation; direct binding; proteins titrated from 4 µM in two-fold dilutions against 20 nM N-terminally FITC-labeled peptide; 20 mM Tris pH 7.5, 150 mM NaCl, 5% glycerol, 0.5 mM TCEP, 0.01% Triton; 45 min at room temperature; both purified
T1 sequence (peptide, fluorescein isothiocyanate (FITC) on the N-terminus): ARTKQTARASTGGK

[2] = target: His-tagged DCAF12-FL (human) (UniProt Q5T6F0); test: cryo-EM structure; DDB1–DCAF12–MAGEA3 complex, co-expressed and co-purified; 0.2 mg/mL on grids; 3.17 Å map

| binding [2] | Substance | binding [1] |
| --- | --- | --- |
|  | DCAF12 (Δ1–78) (from UniProt Q5T6F0 79-453) (domain or fragment) | no binding (tested: 4 µM highest concentration) |
| binds | MAGEA3 212-amino acid construct (from UniProt P43357 104-314) (domain or fragment) |  |
